Consider 1 compound from publication PMC8099784 (Redox Biology, 2021).

One assay deals with A549. Description: MTT cell viability assay, A549 cells. The class given is cell-based, human. Particulars: read-out: IC50 (μM) A549, cytotoxicity, mean ± SD. A digest of the protocol:
(§1)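 Cells kept in RPMI 1640 with 10% FBS and penicillin/streptomycin at 37 °C, 5% CO2. Seeded at 5 × 10^3 cells/well overnight, exposed to a concentration series for the stated time. MTT (5 mg/mL) added for 4 h, crystals dissolved in DMSO, absorbance read at 570 nm. Normalized to DMSO vehicle; three independent runs; IC50 by curve fitting.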
In general terms: Formazan colour is commonly taken as a measure of viable cells.

The test system of a further assay is A2780. The assay can be described thus: MTT cell viability assay, A2780 cells. Conditions: read-out: IC50 (μM) A2780, cytotoxicity, mean ± SD. In kind it is cell-based, human. A digest of the protocol:
as §1

Usually IC50 stands for the point on the concentration scale where inhibition reaches its midpoint. On to `N.N.[Cl][Pt][Cl]` [Cisplatin], for which the IC50 with A549 was 9.1 ± 0.6 µM; in the assay on A2780 it was 9.3 ± 0.8 µM.
